For this assay, the target named is Phosphorylated adapter RNA export protein (PHAX), HA-tagged. Briefly: co-IP; HEK293T cells co-transfected with pCD513B-FLAG-METTL21C and pCD513B-HA-PHAX or pCD513B-HA-PHAX (K381); precipitated by HA and by FLAG, detected by blot.

No constants are given. Whether binding was seen depends on the method and setting. Binding seen in cells or lysates may run through a third protein. Binding calls can cover weak binding; strength is not graded here. Tags and fused reporters may be left off the sequences shown.

B1: Methyltransferase-like 21C (METTL21C), FLAG-tagged (enzyme, UniProt E1BSL9 1-249)
chain: MQRATDCQAVEEAACEEPSDSENCTSTAESNSDSPVILKILQNWTPTVSHYFDKEHYTYAGQHIVIQESIEHYGAVVWPGALALSQYLESNQERFNLKDKKVLEIGAGTGLVSIVASILGAYVTATDLPEVLENLSFNISRNTHTNTHKPEVRKLVWGEGLNEDFPLSTHHYDFILASDVVYHHTALDALLATMVYFCQPGTVLLWANKFRFSTDYEFLEQLSNVFDTSILAEFPESNVKLLKATVREN
Consider B1, for which the binding result is recorded as “binds”.

(Values after publication PMC10779018.)
